Measurements from PMC8384837.
Some of the results follow. For some assays here: At the low end of the ranking the order means little.

Each sequence was assayed against T1, PUM1 PUF domain R3-THE R4-TFR R7-NPG C935T + R936H + Q939E + N971T + H972F + Q975R + S1079N + N1080P + E1083G (Homo sapiens) (UniProt Q14671). Conditions: yeast three-hybrid, YBZ-1, SC-Leu-His + 0.5 mM 3-AT, 4 days.
T1 sequence: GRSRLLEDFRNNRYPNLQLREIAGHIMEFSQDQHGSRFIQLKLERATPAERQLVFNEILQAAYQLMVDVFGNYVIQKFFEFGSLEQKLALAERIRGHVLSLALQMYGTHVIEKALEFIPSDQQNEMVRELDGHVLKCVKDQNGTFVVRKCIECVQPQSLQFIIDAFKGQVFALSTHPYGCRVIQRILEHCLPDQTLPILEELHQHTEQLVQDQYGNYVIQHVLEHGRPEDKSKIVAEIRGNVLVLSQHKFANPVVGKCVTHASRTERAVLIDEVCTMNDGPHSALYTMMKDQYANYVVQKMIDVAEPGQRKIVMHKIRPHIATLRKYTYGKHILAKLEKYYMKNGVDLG

Row | Sequence | binding signal (log2 enrichment (interaction score))
1 | GGCUAGAACUAGUGGAUCCCCCGGCGCCCGGCGGCUCGAGCCCGGGUAAGCUUAAGCAGUCUGCAUGCCGCCGGGCGCCAUGCCUGCAGGUCGACUCUAGAAAACAUG | < -1.43
2 | GGCUAGAACUAGUGGAUCCCCCGGCGCCCGGCGGCUCGAGCCCGGGUAAGAGUAAGUAGUCUGCAUGCCGCCGGGCGCCAUGCCUGCAGGUCGACUCUAGAAAACAUG | -1.53
3 | GGCUAGAACUAGUGGAUCCCCCGGCGCCCGGCGGCUCGAGCCCGGGUAAGCUAACUUAGUCUGCAUGCCGCCGGGCGCCAUGCCUGCAGGUCGACUCUAGAAAACAUG | < -0.62
4 | GGCUAGAACUAGUGGAUCCCCCGGCGCCCGGCGGCUCGAGCCCGGGUAAGUGUCAGACGUCUGCAUGCCGCCGGGCGCCAUGCCUGCAGGUCGACUCUAGAAAACAUG | < -0.17
5 | GGCUAGAACUAGUGGAUCCCCCGGCGCCCGGCGGCUCGAGCCCGGGUAAGUAGACGGAGUCUGCAUGCCGCCGGGCGCCAUGCCUGCAGGUCGACUCUAGAAAACAUG | -1.89
6 | GGCUAGAACUAGUGGAUCCCCCGGCGCCCGGCGGCUCGAGCCCGGGUAAGCCAAACUAGUCUGCAUGCCGCCGGGCGCCAUGCCUGCAGGUCGACUCUAGAAAACAUG | -1.69
7 | GGCUAGAACUAGUGGAUCCCCCGGCGCCCGGCGGCUCGAGCCCGGGUAAGUGUGCAACGUCUGCAUGCCGCCGGGCGCCAUGCCUGCAGGUCGACUCUAGAAAACAUG | -1.6
8 | GGCUAGAACUAGUGGAUCCCCCGGCGCCCGGCGGCUCGAGCCCGGGUAAGUUUCCAUCGUCUGCAUGCCGCCGGGCGCCAUGCCUGCAGGUCGACUCUAGAAAACAUG | -1.92
9 | GGCUAGAACUAGUGGAUCCCCCGGCGCCCGGCGGCUCGAGCCCGGGUAAGUUUAAGCGGUCUGCAUGCCGCCGGGCGCCAUGCCUGCAGGUCGACUCUAGAAAACAUG | -1.95
10 | GGCUAGAACUAGUGGAUCCCCCGGCGCCCGGCGGCUCGAGCCCGGGUAAGUUUACAAGGUCUGCAUGCCGCCGGGCGCCAUGCCUGCAGGUCGACUCUAGAAAACAUG | < -1.63
11 | GGCUAGAACUAGUGGAUCCCCCGGCGCCCGGCGGCUCGAGCCCGGGUAAGUAGACGUAGUCUGCAUGCCGCCGGGCGCCAUGCCUGCAGGUCGACUCUAGAAAACAUG | -0.65
12 | GGCUAGAACUAGUGGAUCCCCCGGCGCCCGGCGGCUCGAGCCCGGGUAAGUACACGUCGUCUGCAUGCCGCCGGGCGCCAUGCCUGCAGGUCGACUCUAGAAAACAUG | -1.62
13 | GGCUAGAACUAGUGGAUCCCCCGGCGCCCGGCGGCUCGAGCCCGGGUAAGCUGACGUCGUCUGCAUGCCGCCGGGCGCCAUGCCUGCAGGUCGACUCUAGAAAACAUG | < -0.35
14 | GGCUAGAACUAGUGGAUCCCCCGGCGCCCGGCGGCUCGAGCCCGGGUAAGUUAACGGAGUCUGCAUGCCGCCGGGCGCCAUGCCUGCAGGUCGACUCUAGAAAACAUG | -1.25
15 | GGCUAGAACUAGUGGAUCCCCCGGCGCCCGGCGGCUCGAGCCCGGGUAAGUCUAAGUAGUCUGCAUGCCGCCGGGCGCCAUGCCUGCAGGUCGACUCUAGAAAACAUG | -1.86
16 | GGCUAGAACUAGUGGAUCCCCCGGCGCCCGGCGGCUCGAGCCCGGGUAAGUAUACGCAGUCUGCAUGCCGCCGGGCGCCAUGCCUGCAGGUCGACUCUAGAAAACAUG | -1.6
17 | GGCUAGAACUAGUGGAUCCCCCGGCGCCCGGCGGCUCGAGCCCGGGUAAGUUGUCUUAGUCUGCAUGCCGCCGGGCGCCAUGCCUGCAGGUCGACUCUAGAAAACAUG | -1.13
18 | GGCUAGAACUAGUGGAUCCCCCGGCGCCCGGCGGCUCGAGCCCGGGUAAGUUUGCCUAGUCUGCAUGCCGCCGGGCGCCAUGCCUGCAGGUCGACUCUAGAAAACAUG | -0.72
19 | GGCUAGAACUAGUGGAUCCCCCGGCGCCCGGCGGCUCGAGCCCGGGUAAGGUGAUGAAGUCUGCAUGCCGCCGGGCGCCAUGCCUGCAGGUCGACUCUAGAAAACAUG | -1.07
20 | GGCUAGAACUAGUGGAUCCCCCGGCGCCCGGCGGCUCGAGCCCGGGUAAGCGAAGCUCGUCUGCAUGCCGCCGGGCGCCAUGCCUGCAGGUCGACUCUAGAAAACAUG | -1.01

These sequences were tested against T2, PUM1 PUF domain R3-THE R4-TFR R7-NPG C935T + R936H + Q939E + N971T + H972F + Q975R + S1079N + N1080P + E1083G (UniProt Q14671). Conditions: yeast three-hybrid, YBZ-1, SC-Leu-His + 0.5 mM 3-AT, 4 days.
T2 sequence: T1 sequence

Row | Sequence | binding signal (log2 enrichment (interaction score))
21 | GGCUAGAACUAGUGGAUCCCCCGGCGCCCGGCGGCUCGAGCCCGGGUAAGGCUACACCGUCUGCAUGCCGCCGGGCGCCAUGCCUGCAGGUCGACUCUAGAAAACAUG | -2.09
22 | GGCUAGAACUAGUGGAUCCCCCGGCGCCCGGCGGCUCGAGCCCGGGUAAGGGUGCGUAGUCUGCAUGCCGCCGGGCGCCAUGCCUGCAGGUCGACUCUAGAAAACAUG | -2.2
23 | GGCUAGAACUAGUGGAUCCCCCGGCGCCCGGCGGCUCGAGCCCGGGUAAGUGUUACCAGUCUGCAUGCCGCCGGGCGCCAUGCCUGCAGGUCGACUCUAGAAAACAUG | -2.19
24 | GGCUAGAACUAGUGGAUCCCCCGGCGCCCGGCGGCUCGAGCCCGGGUAAGUUUAUGCAGUCUGCAUGCCGCCGGGCGCCAUGCCUGCAGGUCGACUCUAGAAAACAUG | < -2.41
25 | GGCUAGAACUAGUGGAUCCCCCGGCGCCCGGCGGCUCGAGCCCGGGUAAGUUUUCUUUGUCUGCAUGCCGCCGGGCGCCAUGCCUGCAGGUCGACUCUAGAAAACAUG | -2.67
26 | GGCUAGAACUAGUGGAUCCCCCGGCGCCCGGCGGCUCGAGCCCGGGUAAGUCUGCGAUGUCUGCAUGCCGCCGGGCGCCAUGCCUGCAGGUCGACUCUAGAAAACAUG | < -2.06
27 | GGCUAGAACUAGUGGAUCCCCCGGCGCCCGGCGGCUCGAGCCCGGGUAAGUUUACGUCGUCUGCAUGCCGCCGGGCGCCAUGCCUGCAGGUCGACUCUAGAAAACAUG | -2.01
28 | GGCUAGAACUAGUGGAUCCCCCGGCGCCCGGCGGCUCGAGCCCGGGUAAGAUCACGUAGUCUGCAUGCCGCCGGGCGCCAUGCCUGCAGGUCGACUCUAGAAAACAUG | -3.11
29 | GGCUAGAACUAGUGGAUCCCCCGGCGCCCGGCGGCUCGAGCCCGGGUAAGUGAAAGUAGUCUGCAUGCCGCCGGGCGCCAUGCCUGCAGGUCGACUCUAGAAAACAUG | < -2.15
30 | GGCUAGAACUAGUGGAUCCCCCGGCGCCCGGCGGCUCGAGCCCGGGUAAGCGUGGAUUGUCUGCAUGCCGCCGGGCGCCAUGCCUGCAGGUCGACUCUAGAAAACAUG | < -2.07
31 | GGCUAGAACUAGUGGAUCCCCCGGCGCCCGGCGGCUCGAGCCCGGGUAAGUAUGCGACGUCUGCAUGCCGCCGGGCGCCAUGCCUGCAGGUCGACUCUAGAAAACAUG | -2.07
32 | GGCUAGAACUAGUGGAUCCCCCGGCGCCCGGCGGCUCGAGCCCGGGUAAGUUUACUUCGUCUGCAUGCCGCCGGGCGCCAUGCCUGCAGGUCGACUCUAGAAAACAUG | -2.32

Quoted at random: two records from the list.
Row | Sequence | binding signal (log2 enrichment (interaction score))
25 | GGCUAGAACUAGUGGAUCCCCCGGCGCCCGGCGGCUCGAGCCCGGGUAAGUUUUCUUUGUCUGCAUGCCGCCGGGCGCCAUGCCUGCAGGUCGACUCUAGAAAACAUG | -2.67
26 | GGCUAGAACUAGUGGAUCCCCCGGCGCCCGGCGGCUCGAGCCCGGGUAAGUCUGCGAUGUCUGCAUGCCGCCGGGCGCCAUGCCUGCAGGUCGACUCUAGAAAACAUG | < -2.06
